Experimental data taken from the supplement of paper PMC7661543.
The effect of the compound repeats well; differences between the knockouts mostly do not.

System: BT-20
Experiment: relative cell number vs DMSO control (72 h) (% of DMSO); higher = less growth inhibition (more cells)
Experimental: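 QMAP-Seq: a pool of 5 breast cancer cell lines (ZR-75-1, SKBR3, HCC-38, MDA-MB-231, BT-20), each carrying 12 doxycycline-inducible Cas9 sgRNA perturbations (11 knockouts plus non-targeting sgNT), was treated with compounds for 72 h at four 10-fold doses (10 nM-10 uM or 1 nM-1 uM range). Barcodes were amplified and sequenced, and cell number was interpolated from 293T spike-in standard curves. The result is expressed as % of the median of DMSO wells. Two biological replicates.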

CNC(=O)c1cc(Oc2ccc(NC(=O)Nc3ccc(Cl)c(C(F)(F)F)c3)cc2)ccn1 [Sorafenib]
Conditions	relative cell number
sgRNA knockout: sgATF3, 10 nM	105.6
sgRNA knockout: sgATF3, 100 nM	111
sgRNA knockout: sgATF3, 1000 nM	105
sgRNA knockout: sgATF3, 10000 nM	43.5
sgRNA knockout: sgATF4, 10 nM	101
sgRNA knockout: sgATF4, 100 nM	113
sgRNA knockout: sgATF4, 1000 nM	94.6
sgRNA knockout: sgATF4, 10000 nM	50
sgRNA knockout: sgATF6, 10 nM	119
sgRNA knockout: sgATF6, 100 nM	113
sgRNA knockout: sgATF6, 1000 nM	112
sgRNA knockout: sgATF6, 10000 nM	56.9
sgRNA knockout: sgATG7, 10 nM	95.1
sgRNA knockout: sgATG7, 100 nM	110.8
sgRNA knockout: sgATG7, 1000 nM	113
sgRNA knockout: sgATG7, 10000 nM	47.1
sgRNA knockout: sgERN1, 10 nM	84.4
sgRNA knockout: sgERN1, 100 nM	107
sgRNA knockout: sgERN1, 1000 nM	109
sgRNA knockout: sgERN1, 10000 nM	55.9
sgRNA knockout: sgHSF1, 10 nM	97.6
sgRNA knockout: sgHSF1, 100 nM	104
sgRNA knockout: sgHSF1, 1000 nM	107
sgRNA knockout: sgHSF1, 10000 nM	52.8
sgRNA knockout: sgHSF2, 10 nM	90.1
sgRNA knockout: sgHSF2, 100 nM	117
sgRNA knockout: sgHSF2, 1000 nM	106
sgRNA knockout: sgHSF2, 10000 nM	59.2
sgRNA knockout: sgKEAP1, 10 nM	99.7
sgRNA knockout: sgKEAP1, 100 nM	110
sgRNA knockout: sgKEAP1, 1000 nM	120
sgRNA knockout: sgKEAP1, 10000 nM	45.6
sgRNA knockout: sgNFE2L2, 10 nM	82.3
sgRNA knockout: sgNFE2L2, 100 nM	101
sgRNA knockout: sgNFE2L2, 1000 nM	108
sgRNA knockout: sgNFE2L2, 10000 nM	49.7
sgRNA knockout: sgSLC35F2, 10 nM	95.2
sgRNA knockout: sgSLC35F2, 100 nM	103
sgRNA knockout: sgSLC35F2, 1000 nM	102
sgRNA knockout: sgSLC35F2, 10000 nM	54.8
sgRNA knockout: sgXBP1, 10 nM	89.4
sgRNA knockout: sgXBP1, 100 nM	102
sgRNA knockout: sgXBP1, 1000 nM	106
sgRNA knockout: sgXBP1, 10000 nM	53.4

CC(C)(C)c1ccc(S(=O)(=O)NCc2ccc(C(=O)Nc3cccnc3)cc2)cc1 [STF31]
Conditions	relative cell number
sgRNA knockout: sgATF3, 10 nM	102
sgRNA knockout: sgATF3, 100 nM	101
sgRNA knockout: sgATF3, 1000 nM	96.3
sgRNA knockout: sgATF3, 10000 nM	68.2
sgRNA knockout: sgATF4, 10 nM	101
sgRNA knockout: sgATF4, 100 nM	93.6
sgRNA knockout: sgATF4, 1000 nM	93.3
sgRNA knockout: sgATF4, 10000 nM	81.6
sgRNA knockout: sgATF6, 10 nM	109.8
sgRNA knockout: sgATF6, 100 nM	93.4
sgRNA knockout: sgATF6, 1000 nM	98.8
sgRNA knockout: sgATF6, 10000 nM	83.5
sgRNA knockout: sgATG7, 10 nM	109
sgRNA knockout: sgATG7, 100 nM	94.5
sgRNA knockout: sgATG7, 1000 nM	109
sgRNA knockout: sgATG7, 10000 nM	80.2
sgRNA knockout: sgERN1, 10 nM	90.6
sgRNA knockout: sgERN1, 100 nM	89.6
sgRNA knockout: sgERN1, 1000 nM	105
sgRNA knockout: sgERN1, 10000 nM	78.4
sgRNA knockout: sgHSF1, 10 nM	96.9
sgRNA knockout: sgHSF1, 100 nM	83.8
sgRNA knockout: sgHSF1, 1000 nM	97.5
sgRNA knockout: sgHSF1, 10000 nM	84
sgRNA knockout: sgHSF2, 10 nM	81.8
sgRNA knockout: sgHSF2, 100 nM	88.1
sgRNA knockout: sgHSF2, 1000 nM	104
sgRNA knockout: sgHSF2, 10000 nM	78.3
sgRNA knockout: sgKEAP1, 10 nM	98
sgRNA knockout: sgKEAP1, 100 nM	88.1
sgRNA knockout: sgKEAP1, 1000 nM	89.6
sgRNA knockout: sgKEAP1, 10000 nM	84.4
sgRNA knockout: sgNFE2L2, 10 nM	84.2
sgRNA knockout: sgNFE2L2, 100 nM	99.5
sgRNA knockout: sgNFE2L2, 1000 nM	95.3
sgRNA knockout: sgNFE2L2, 10000 nM	91.4
sgRNA knockout: sgSLC35F2, 10 nM	110
sgRNA knockout: sgSLC35F2, 100 nM	92.3
sgRNA knockout: sgSLC35F2, 1000 nM	108
sgRNA knockout: sgSLC35F2, 10000 nM	73.5
sgRNA knockout: sgXBP1, 10 nM	91.2
sgRNA knockout: sgXBP1, 100 nM	83.7
sgRNA knockout: sgXBP1, 1000 nM	102
sgRNA knockout: sgXBP1, 10000 nM	74.5

Cc1c(Cn2c(C)nc3c(C(=O)O)cc(N4CCOCC4)cc32)cccc1C(F)(F)F
Conditions	relative cell number
sgRNA knockout: sgATF3, 10 nM	80.4
sgRNA knockout: sgATF3, 100 nM	113
sgRNA knockout: sgATF3, 1000 nM	100
sgRNA knockout: sgATF3, 10000 nM	111
sgRNA knockout: sgATF4, 10 nM	97.2
sgRNA knockout: sgATF4, 100 nM	112
sgRNA knockout: sgATF4, 1000 nM	98.7
sgRNA knockout: sgATF4, 10000 nM	105
sgRNA knockout: sgATF6, 10 nM	101
sgRNA knockout: sgATF6, 100 nM	104
sgRNA knockout: sgATF6, 1000 nM	82.5
sgRNA knockout: sgATF6, 10000 nM	97.2
sgRNA knockout: sgATG7, 10 nM	110
sgRNA knockout: sgATG7, 100 nM	102
sgRNA knockout: sgATG7, 1000 nM	98.32
sgRNA knockout: sgATG7, 10000 nM	100
sgRNA knockout: sgERN1, 10 nM	89.95
sgRNA knockout: sgERN1, 100 nM	97.8
sgRNA knockout: sgERN1, 1000 nM	83
sgRNA knockout: sgERN1, 10000 nM	103
sgRNA knockout: sgHSF1, 10 nM	102
sgRNA knockout: sgHSF1, 100 nM	102
sgRNA knockout: sgHSF1, 1000 nM	94.8
sgRNA knockout: sgHSF1, 10000 nM	105
sgRNA knockout: sgHSF2, 10 nM	114
sgRNA knockout: sgHSF2, 100 nM	116
sgRNA knockout: sgHSF2, 1000 nM	99.2
sgRNA knockout: sgHSF2, 10000 nM	83.2
sgRNA knockout: sgKEAP1, 10 nM	109
sgRNA knockout: sgKEAP1, 100 nM	100
sgRNA knockout: sgKEAP1, 1000 nM	94
sgRNA knockout: sgKEAP1, 10000 nM	102
sgRNA knockout: sgNFE2L2, 10 nM	125
sgRNA knockout: sgNFE2L2, 100 nM	146
sgRNA knockout: sgNFE2L2, 1000 nM	97.6
sgRNA knockout: sgNFE2L2, 10000 nM	124.6
sgRNA knockout: sgSLC35F2, 10 nM	105
sgRNA knockout: sgSLC35F2, 100 nM	116
sgRNA knockout: sgSLC35F2, 1000 nM	98.2
sgRNA knockout: sgSLC35F2, 10000 nM	107
sgRNA knockout: sgXBP1, 10 nM	109
sgRNA knockout: sgXBP1, 100 nM	109
sgRNA knockout: sgXBP1, 1000 nM	97.7
sgRNA knockout: sgXBP1, 10000 nM	96.2
